Laboratory results: article doi:10.1101/2025.03.06.641895
No constants are given. Whether binding was seen depends on the method and setting. Binding seen in cells or lysates may run through a third protein. Some binding calls cover weakened binding; strength is not graded here.

Chains of the proteins cited; added tags and fusions are not shown.
UniProt P29341: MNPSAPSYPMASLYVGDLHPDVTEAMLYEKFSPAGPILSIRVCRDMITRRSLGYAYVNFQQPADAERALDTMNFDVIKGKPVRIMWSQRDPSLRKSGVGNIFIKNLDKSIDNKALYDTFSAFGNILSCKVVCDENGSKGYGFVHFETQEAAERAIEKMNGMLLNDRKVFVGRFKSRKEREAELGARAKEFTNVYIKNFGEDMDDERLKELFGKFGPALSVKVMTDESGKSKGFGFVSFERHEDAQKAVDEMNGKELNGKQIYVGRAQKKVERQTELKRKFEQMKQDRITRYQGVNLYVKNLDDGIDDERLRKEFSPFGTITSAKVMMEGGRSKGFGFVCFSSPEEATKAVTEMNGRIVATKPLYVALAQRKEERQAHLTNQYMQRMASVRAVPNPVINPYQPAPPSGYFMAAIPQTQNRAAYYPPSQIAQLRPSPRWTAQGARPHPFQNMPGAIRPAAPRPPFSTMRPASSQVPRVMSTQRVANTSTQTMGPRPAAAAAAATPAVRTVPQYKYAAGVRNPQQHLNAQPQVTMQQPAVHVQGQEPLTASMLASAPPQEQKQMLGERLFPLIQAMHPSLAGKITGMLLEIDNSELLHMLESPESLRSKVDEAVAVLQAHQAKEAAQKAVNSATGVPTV

Target: T1, Ataxin-2-like (ATXN2L) (mouse (endogenous in MEF)) (UniProt Q7TQH0)
T1 sequence: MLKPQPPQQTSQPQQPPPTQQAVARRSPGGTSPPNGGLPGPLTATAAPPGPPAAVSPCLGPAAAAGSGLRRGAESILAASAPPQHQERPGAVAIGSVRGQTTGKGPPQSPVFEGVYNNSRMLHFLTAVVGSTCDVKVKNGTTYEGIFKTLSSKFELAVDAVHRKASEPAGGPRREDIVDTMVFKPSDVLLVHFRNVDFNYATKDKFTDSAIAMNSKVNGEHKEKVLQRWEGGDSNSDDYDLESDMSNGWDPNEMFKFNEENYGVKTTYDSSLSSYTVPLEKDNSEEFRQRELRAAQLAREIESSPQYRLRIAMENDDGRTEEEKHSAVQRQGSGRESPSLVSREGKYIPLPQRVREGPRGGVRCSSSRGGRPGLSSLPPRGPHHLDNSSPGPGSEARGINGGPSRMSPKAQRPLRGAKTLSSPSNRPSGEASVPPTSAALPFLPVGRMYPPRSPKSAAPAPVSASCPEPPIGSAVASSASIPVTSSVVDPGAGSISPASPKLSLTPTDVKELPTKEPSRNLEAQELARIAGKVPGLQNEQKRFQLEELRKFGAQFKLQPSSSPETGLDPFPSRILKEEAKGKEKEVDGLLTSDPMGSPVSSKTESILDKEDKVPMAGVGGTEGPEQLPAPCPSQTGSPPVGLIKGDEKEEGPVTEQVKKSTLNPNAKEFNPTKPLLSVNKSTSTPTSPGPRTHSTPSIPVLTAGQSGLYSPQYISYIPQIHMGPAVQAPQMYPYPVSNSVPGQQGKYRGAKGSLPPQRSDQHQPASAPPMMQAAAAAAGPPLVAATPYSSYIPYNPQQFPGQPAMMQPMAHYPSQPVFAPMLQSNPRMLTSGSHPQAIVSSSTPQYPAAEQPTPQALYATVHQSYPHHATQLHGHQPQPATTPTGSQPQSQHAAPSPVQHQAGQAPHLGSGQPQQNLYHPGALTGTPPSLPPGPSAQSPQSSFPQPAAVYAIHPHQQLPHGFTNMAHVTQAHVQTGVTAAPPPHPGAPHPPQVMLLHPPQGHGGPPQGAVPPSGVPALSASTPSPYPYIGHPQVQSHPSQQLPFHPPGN
Test: co-IP

cytosolic poly(A) binding protein PABPC1 (from UniProt P29341 1-636)
binding: binds
